From article doi:10.1101/2025.09.11.675346

Chains of the proteins cited; added tags and fusions are not shown.
UniProt P49790: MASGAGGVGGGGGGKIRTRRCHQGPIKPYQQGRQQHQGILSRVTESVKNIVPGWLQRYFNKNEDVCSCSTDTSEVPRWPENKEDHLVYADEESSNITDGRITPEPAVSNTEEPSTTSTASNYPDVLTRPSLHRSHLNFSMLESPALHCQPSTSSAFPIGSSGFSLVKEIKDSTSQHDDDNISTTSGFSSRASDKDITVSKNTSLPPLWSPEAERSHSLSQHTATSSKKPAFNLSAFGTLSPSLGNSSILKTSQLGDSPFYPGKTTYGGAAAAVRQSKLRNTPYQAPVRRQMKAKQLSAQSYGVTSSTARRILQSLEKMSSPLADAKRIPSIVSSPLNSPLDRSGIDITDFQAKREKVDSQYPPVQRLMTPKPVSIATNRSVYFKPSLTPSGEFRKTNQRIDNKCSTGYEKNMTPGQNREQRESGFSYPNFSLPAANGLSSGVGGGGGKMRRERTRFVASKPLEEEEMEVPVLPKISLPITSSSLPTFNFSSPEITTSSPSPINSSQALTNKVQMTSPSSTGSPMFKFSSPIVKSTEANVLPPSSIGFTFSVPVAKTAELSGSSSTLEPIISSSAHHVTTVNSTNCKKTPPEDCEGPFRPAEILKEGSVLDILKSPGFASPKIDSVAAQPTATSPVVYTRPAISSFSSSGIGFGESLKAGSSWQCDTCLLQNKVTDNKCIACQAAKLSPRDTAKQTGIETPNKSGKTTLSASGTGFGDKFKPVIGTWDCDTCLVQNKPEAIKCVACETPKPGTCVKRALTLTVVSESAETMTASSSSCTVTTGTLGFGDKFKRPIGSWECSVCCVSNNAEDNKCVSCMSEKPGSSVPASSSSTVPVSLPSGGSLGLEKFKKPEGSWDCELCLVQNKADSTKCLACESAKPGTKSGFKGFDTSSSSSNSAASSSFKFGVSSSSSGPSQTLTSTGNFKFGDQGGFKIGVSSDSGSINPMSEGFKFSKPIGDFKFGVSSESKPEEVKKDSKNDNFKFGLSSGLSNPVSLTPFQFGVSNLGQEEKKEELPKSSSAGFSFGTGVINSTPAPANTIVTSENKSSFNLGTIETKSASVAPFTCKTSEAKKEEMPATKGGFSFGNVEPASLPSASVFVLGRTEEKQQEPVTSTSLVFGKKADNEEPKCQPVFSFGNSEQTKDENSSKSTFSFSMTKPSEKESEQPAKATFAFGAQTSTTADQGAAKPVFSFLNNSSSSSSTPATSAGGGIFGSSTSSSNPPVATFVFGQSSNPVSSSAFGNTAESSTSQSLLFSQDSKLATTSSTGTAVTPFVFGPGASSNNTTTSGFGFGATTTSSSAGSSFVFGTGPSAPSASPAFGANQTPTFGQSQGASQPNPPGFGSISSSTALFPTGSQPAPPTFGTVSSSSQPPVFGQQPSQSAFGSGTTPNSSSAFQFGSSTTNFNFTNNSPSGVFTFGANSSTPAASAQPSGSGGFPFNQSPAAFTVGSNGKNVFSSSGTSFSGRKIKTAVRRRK
UniProt P39880: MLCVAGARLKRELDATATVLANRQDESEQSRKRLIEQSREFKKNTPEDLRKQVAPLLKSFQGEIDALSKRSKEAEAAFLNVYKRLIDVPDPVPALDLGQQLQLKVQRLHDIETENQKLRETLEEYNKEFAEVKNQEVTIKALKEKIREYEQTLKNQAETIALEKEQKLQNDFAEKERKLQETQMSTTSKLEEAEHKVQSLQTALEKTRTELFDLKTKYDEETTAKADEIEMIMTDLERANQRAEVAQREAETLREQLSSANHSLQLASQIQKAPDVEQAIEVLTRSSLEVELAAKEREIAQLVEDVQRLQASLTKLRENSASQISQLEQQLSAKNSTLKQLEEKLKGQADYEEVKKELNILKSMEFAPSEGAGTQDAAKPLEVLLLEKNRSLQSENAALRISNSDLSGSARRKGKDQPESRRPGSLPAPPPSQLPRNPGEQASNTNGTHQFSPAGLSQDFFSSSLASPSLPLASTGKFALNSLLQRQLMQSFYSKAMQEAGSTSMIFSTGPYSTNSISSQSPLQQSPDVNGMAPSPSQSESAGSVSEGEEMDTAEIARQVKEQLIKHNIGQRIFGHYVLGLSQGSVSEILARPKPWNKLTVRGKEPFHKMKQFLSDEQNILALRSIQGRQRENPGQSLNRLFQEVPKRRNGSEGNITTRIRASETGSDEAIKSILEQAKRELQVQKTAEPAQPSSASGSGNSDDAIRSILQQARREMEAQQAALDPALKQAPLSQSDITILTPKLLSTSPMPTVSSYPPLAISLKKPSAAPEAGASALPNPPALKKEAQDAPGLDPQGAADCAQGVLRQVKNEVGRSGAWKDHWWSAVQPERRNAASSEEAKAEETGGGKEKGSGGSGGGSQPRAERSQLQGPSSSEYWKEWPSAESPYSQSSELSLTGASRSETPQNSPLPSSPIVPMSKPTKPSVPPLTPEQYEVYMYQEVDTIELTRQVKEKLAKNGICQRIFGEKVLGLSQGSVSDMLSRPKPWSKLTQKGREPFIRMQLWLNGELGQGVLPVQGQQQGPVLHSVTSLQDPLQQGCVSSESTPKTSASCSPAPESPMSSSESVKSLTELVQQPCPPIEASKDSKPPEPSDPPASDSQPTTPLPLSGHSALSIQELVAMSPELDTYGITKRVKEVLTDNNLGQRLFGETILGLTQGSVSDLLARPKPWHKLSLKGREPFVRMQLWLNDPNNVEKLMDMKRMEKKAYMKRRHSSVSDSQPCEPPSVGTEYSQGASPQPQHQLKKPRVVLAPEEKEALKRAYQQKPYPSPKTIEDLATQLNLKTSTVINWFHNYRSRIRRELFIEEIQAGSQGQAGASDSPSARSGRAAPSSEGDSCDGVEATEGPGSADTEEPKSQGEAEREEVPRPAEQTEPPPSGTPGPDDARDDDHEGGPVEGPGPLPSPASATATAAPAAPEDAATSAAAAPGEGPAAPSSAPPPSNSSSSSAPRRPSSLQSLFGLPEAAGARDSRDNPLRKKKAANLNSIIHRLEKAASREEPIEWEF

T1: BirA*-Flag-FANCA (UniProt O15360)
T1 sequence: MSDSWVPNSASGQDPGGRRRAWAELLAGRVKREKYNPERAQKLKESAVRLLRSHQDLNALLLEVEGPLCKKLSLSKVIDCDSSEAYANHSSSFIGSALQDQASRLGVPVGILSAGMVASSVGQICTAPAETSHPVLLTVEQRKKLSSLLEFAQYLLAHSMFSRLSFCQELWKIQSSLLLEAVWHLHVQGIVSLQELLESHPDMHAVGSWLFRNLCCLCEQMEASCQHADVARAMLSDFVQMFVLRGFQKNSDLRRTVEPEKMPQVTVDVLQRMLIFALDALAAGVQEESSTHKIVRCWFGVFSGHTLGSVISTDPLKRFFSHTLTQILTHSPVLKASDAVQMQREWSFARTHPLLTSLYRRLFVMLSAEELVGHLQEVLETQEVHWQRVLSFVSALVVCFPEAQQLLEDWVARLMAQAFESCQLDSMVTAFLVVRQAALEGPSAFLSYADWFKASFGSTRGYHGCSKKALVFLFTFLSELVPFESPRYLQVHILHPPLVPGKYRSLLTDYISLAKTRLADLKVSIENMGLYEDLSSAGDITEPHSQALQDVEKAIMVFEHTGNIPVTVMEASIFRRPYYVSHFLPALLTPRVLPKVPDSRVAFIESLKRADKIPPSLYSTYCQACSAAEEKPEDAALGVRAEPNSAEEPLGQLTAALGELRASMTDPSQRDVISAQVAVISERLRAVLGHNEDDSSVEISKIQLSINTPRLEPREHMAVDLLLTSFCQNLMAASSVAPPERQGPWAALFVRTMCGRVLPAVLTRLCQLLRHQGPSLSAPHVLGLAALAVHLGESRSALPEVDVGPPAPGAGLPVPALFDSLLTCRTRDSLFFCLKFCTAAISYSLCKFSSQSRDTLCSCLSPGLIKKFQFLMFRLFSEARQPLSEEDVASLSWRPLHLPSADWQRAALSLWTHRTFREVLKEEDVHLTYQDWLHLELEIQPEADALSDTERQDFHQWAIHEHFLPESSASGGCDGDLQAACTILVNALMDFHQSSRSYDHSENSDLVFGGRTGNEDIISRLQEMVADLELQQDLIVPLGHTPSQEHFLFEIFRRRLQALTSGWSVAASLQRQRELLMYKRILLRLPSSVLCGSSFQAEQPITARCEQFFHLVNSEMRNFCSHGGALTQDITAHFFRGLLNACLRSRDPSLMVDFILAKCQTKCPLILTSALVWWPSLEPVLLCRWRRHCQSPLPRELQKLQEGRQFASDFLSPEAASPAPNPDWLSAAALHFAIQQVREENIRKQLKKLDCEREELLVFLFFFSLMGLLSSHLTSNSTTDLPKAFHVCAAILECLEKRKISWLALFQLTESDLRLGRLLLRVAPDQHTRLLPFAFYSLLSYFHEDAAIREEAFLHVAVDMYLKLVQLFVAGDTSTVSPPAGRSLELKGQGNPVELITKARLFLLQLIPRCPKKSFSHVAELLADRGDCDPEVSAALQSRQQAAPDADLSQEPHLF


Target: T1, BirA*-Flag-FANCA
Assay: proximity labelling

Molecule	binding
NUP153 (from UniProt P49790 1-1475)	binds
CUX1 (from UniProt P39880 1-1505)	binds
FANCG (protein, UniProt O15287 1-622) MSRQTTSVGSSCLDLWREKNDRLVRQAKVAQNSGLTLRRQQLAQDALEGLRGLLHSLQGLPAAVPVLPLELTVTCNFIILRASLAQGFTEDQAQDIQRSLERVLETQEQQGPRLEQGLRELWDSVLRASCLLPELLSALHRLVGLQAALWLSADRLGDLALLLETLNGSQSGASKDLLLLLKTWSPPAEELDAPLTLQDAQGLKDVLLTAFAYRQGLQELITGNPDKALSSLHEAASGLCPRPVLVQVYTALGSCHRKMGNPQRALLYLVAALKEGSAWGPPLLEASRLYQQLGDTTAELESLELLVEALNVPCSSKAPQFLIEVELLLPPPDLASPLHCGTQSQTKHILASRCLQTGRAGDAAEHYLDLLALLLDSSEPRFSPPPSPPGPCMPEVFLEAAVALIQAGRAQDALTLCEELLSRTSSLLPKMSRLWEDARKGTKELPYCPLWVSATHLLQGQAWVQLGAQKVAISEFSRCLELLFRATPEEKEQGAAFNCEQGCKSDAALQQLRAAALISRGLEWVASGQDTKALQDFLLSVQMCPGNRDTYFHLLQTLKRLDRRDEATALWWRLEAQTKGSHEDALWSLPLYLESYLSWIRPSDRDAFLEEFRTSLPKSCDL	binds
FAAP20 (protein, UniProt Q6NZ36 1-180) MEAARRPRLGLSRRRPRPAGGPSGGRPWFLLGGDERERLWAELLRTVSPELILDHEVPSLPAFPGQEPRCGPEPTEVFTVGPKTFSWTPFPPDLWGPGRSYRLLHGAGGHLESPARSLPQRPAPDPCRAPRVEQQPSVEGAAALRSCPMCQKEFAPRLTQLDVDSHLAQCLAESTEDVTW	binds

Results are given in words; binding and its absence hold for the method and conditions named. In cells and extracts the contact can be indirect. A yes stands for co-enrichment or nearness to the bait. Other partners may have been found. Where a sequence is shown, tags or fusion partners need not be part of it.
